According to PubChem BioAssay (NCATS):
The inconclusive results got no clear call from the source; some entries with a clear call stand among them for comparison. Where the call is inconclusive, the potency comes from a doubtful curve fit. Active and inactive are the calls of the source. The call rests on the fitted dose curve; in most records, active means well fitted curve in the direction sought with a large enough effect; inconclusive means small, poorly fitted or top-dose-only effect, or another doubt; inactive means no such curve, though single readings can be large; an effect the other way counts as inactive or inconclusive.

Tests used:
[1] = Quantitative High-Throughput drug screen in 47 multiple myeloma cell lines against the NCATS MIPE library collection: KMS12BM_JCRB cell viability assay (AID 1918971); conditions: KMS12BM myeloma viability, CellTiter-Glo ATP, 48 h; viability, % of DMSO: at 45.8 µM (top of the series); further: nearly all actives have a fitted effect of over 35% in size
In short: (§1)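 Inhibition of cell viability is measured here. Each line was plated at 500 cells per well, treated with MIPE 4.0 drugs, kept 48 hours at 37C, then assayed for ATP content by CellTiter-Glo luminescence.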

[2] = Quantitative High-Throughput drug screen in 47 multiple myeloma cell lines against the NCATS MIPE library collection: KMS12PE_JCRB cell viability assay (AID 1918972); further: nearly all actives have a fitted effect of over 30% in size
In short: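 Myeloma cell lines, 500 cells per well, exposed to MIPE 4.0 library compounds for 48 h at 37C, 5% CO2. Viability from ATP by CellTiter-Glo luminescence; normalised to DMSO (100%) and media-only (0%) wells.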

[3] = Quantitative High-Throughput drug screen in 47 multiple myeloma cell lines against the NCATS MIPE library collection: KMS20_JCRB cell viability assay (AID 1918973); conditions: CellTiter-Glo ATP, 48 h; viability (% of DMSO): at 45.8 µM (top of the series); further: nearly all actives have a fitted effect of over 45% in size
In short: (§2)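 Viability readout: CellTiter-Glo luminescence following 5 min room-temperature incubation with reagent. Prior exposure: 48 h, 37C, humidified 5% CO2, 500 cells per well.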

[4] = Quantitative High-Throughput drug screen in 47 multiple myeloma cell lines against the NCATS MIPE library collection: KMS21BM_JCRB cell viability assay (AID 1918974); conditions: ATP luminescence, 48 h; viability: at 45.8 µM (top of the series) unless noted
In short: as §2

[5] = Quantitative High-Throughput drug screen in 47 multiple myeloma cell lines against the NCATS MIPE library collection: KMS26_JCRB cell viability assay (AID 1918975); conditions: KMS26 myeloma cells viability, CellTiter-Glo ATP, 48 h; viability (% of DMSO): at 45.8 µM (top of the series); further: nearly all actives have a fitted effect of over 45% in size
In short: as §1

[6] = Quantitative High-Throughput drug screen in 47 multiple myeloma cell lines against the NCATS MIPE library collection: OCIMY1_PLB cell viability assay (AID 1918979); further: nearly all actives have a fitted effect of over 35% in size
In short: (§3)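 500 cells/well per myeloma line exposed to pinned MIPE 4.0 compounds for 48 h at 37 °C, 5% CO2. Viability read as ATP by CellTiter-Glo luminescence, normalised to DMSO-only (100%) and media-only (0%) wells.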

[7] = Quantitative High-Throughput drug screen in 47 multiple myeloma cell lines against the NCATS MIPE library collection: MOLP8_DSMZ cell viability assay (AID 1918977); conditions: MOLP8 myeloma viability, CellTiter-Glo ATP luminescence, 48 h; viability (% of control): at 45.8 µM (top of the series); further: nearly all actives have a fitted effect of over 45% in size
In short: as §3

[8] = Quantitative High-Throughput drug screen in 47 multiple myeloma cell lines against the NCATS MIPE library collection: MM1S_ATCC cell viability assay (AID 1918980); conditions: MM1S myeloma viability, CellTiter-Glo ATP luminescence, 48 h; viability (% of control): at 45.8 µM (top of the series); further: nearly all actives have a fitted effect of over 45% in size
In short: as §3

[9] = Quantitative High-Throughput drug screen in 47 multiple myeloma cell lines against the NCATS MIPE library collection: MMM1_PLB cell viability assay (AID 1918976); further: nearly all actives have a fitted effect of over 35% in size
In short: as §3

[10] = Quantitative High-Throughput drug screen in 47 multiple myeloma cell lines against the NCATS MIPE library collection: NCIH929_DSMZ cell viability assay (AID 1918978); conditions: NCI-H929 myeloma viability, CellTiter-Glo ATP, 48 h; viability, % of control: at 45.8 µM (top of the series); further: nearly all actives have a fitted effect of over 35% in size
In short: as §3
Potency means the concentration at half of the fitted maximal effect.

CC(C(=O)O)c1cccc(C(=O)c2ccccc2)c1 (centres undefined)
inconclusive: viability, % of DMSO [1] 106% [cytotoxic] | Potency [3] 37.2 µM [cytotoxic, single point] | Potency [4] 33.2 µM [rising, partial curve] | Potency [5] 33.2 µM [cytotoxic, partial curve, poor fit]
inactive: Potency [2] | Potency [6]

O=C(Nc1ccc(F)c(C(F)(F)F)c1)Nc1nnc(-c2ccncc2)s1
inactive: Potency [4]
inconclusive: Potency [1] 0.59 µM [cytotoxic, full curve, poor fit] | Potency [2] 18.7 µM [cytotoxic, partial curve] | Potency [3] 16.6 µM [cytotoxic, partial curve, poor fit] | Potency [5] 7.43 µM [cytotoxic, partial curve, poor fit] | Potency [7] 14.8 µM [cytotoxic, partial curve, poor fit] | Potency [8] 26.4 µM [cytotoxic, single point]

COc1cc(Nc2ncc(F)c(Nc3ccc4c(n3)NC(=O)C(C)(C)O4)n2)cc(OC)c1OC
inactive: Potency [8]
active: Potency [3] 1.05 µM | Potency [9] 1.48 µM | Potency [6] 1.66 µM
inconclusive: Potency [1] 33.2 µM [cytotoxic, single point] | Potency [2] 0.526 µM [cytotoxic, full curve] | Potency [4] 4.69 µM [cytotoxic, partial curve, poor fit]

O=C(O)[C@H](CC(=O)N1C[C@@H]2CCCC[C@H]2C1)Cc1ccccc1
inconclusive: Potency [1] 0.0059 µM [rising, full curve] | Potency [2] 2.64 µM [rising, partial curve, poor fit] | Potency [4] 2.96 µM [rising, full curve, poor fit] | Potency [9] 0.0074 µM [rising, full curve, poor fit] | Potency [7] 4.18 µM [cytotoxic, partial curve, poor fit] | Potency [6] 0.001 µM | Potency [8] 33.2 µM [cytotoxic, single point]
inactive: Potency [3]

O=S(=O)(O)CCSSCCS(=O)(=O)O
inconclusive: Potency [1] 0.0023 µM [rising, full curve, poor fit] | Potency [2] 0.0026 µM [rising, full curve, poor fit] | Potency [3] 0.0042 µM [cytotoxic, full curve, poor fit] | Potency [7] 0.0026 µM [rising, full curve, poor fit] | Potency [10] 0.0743 µM [rising, full curve, poor fit] | Potency [6] 0.0037 µM [rising, full curve]
active: Potency [8] 18.7 µM
inactive: Potency [5]

CC(C)Oc1ccc2c(=O)c(-c3ccccc3)coc2c1
active: viability [4] 387%
inconclusive: Potency [1] 18.7 µM [cytotoxic, partial curve, poor fit] | Potency [2] 1.32 µM [cytotoxic, partial curve, poor fit] | Potency [3] 0.003 µM [cytotoxic, full curve, poor fit] | Potency [5] 29.6 µM [cytotoxic, partial curve, poor fit] | Potency [7] 23.5 µM [cytotoxic, partial curve, poor fit] | Potency [6] 33.2 µM [cytotoxic, partial curve, poor fit]

2 records drawn at random from those above, as already listed:
O=S(=O)(O)CCSSCCS(=O)(=O)O
inconclusive: Potency [1] 0.0023 µM [rising, full curve, poor fit] | Potency [2] 0.0026 µM [rising, full curve, poor fit] | Potency [3] 0.0042 µM [cytotoxic, full curve, poor fit] | Potency [7] 0.0026 µM [rising, full curve, poor fit] | Potency [10] 0.0743 µM [rising, full curve, poor fit] | Potency [6] 0.0037 µM [rising, full curve]
active: Potency [8] 18.7 µM
inactive: Potency [5]

COc1cc(Nc2ncc(F)c(Nc3ccc4c(n3)NC(=O)C(C)(C)O4)n2)cc(OC)c1OC
inactive: Potency [8]
active: Potency [3] 1.05 µM | Potency [9] 1.48 µM | Potency [6] 1.66 µM
inconclusive: Potency [1] 33.2 µM [cytotoxic, single point] | Potency [2] 0.526 µM [cytotoxic, full curve] | Potency [4] 4.69 µM [cytotoxic, partial curve, poor fit]

Following part

CC1(C)Cc2c(sc(NC(=S)NC(=O)c3ccccc3)c2C(=O)O)CO1
inconclusive: Potency [1] 0.0235 µM [rising, full curve, poor fit] | Potency [2] 16.6 µM [cytotoxic, partial curve, poor fit] | Potency [3] 0.0083 µM [rising, full curve, poor fit] | Potency [5] 18.7 µM [cytotoxic, partial curve, poor fit] | Potency [9] 0.0148 µM [rising, full curve, poor fit] | Potency [7] 0.0332 µM [rising, full curve, poor fit] | Potency [10] 29.6 µM [cytotoxic, single point]

COC(=O)C1=C(C)NC(C)=C(C(=O)OCCN2CCN(C(c3ccccc3)c3ccccc3)CC2)C1c1cccc([N+](=O)[O-])c1 (centres undefined)
inconclusive: Potency [1] 1.48 µM [cytotoxic, partial curve, poor fit] | Potency [4] 33.2 µM [rising, single point] | Potency [7] 1.48 µM [cytotoxic, partial curve, poor fit] | Potency [8] 20.9 µM [cytotoxic, partial curve, poor fit]
inactive: Potency [2] | Potency [3] | Potency [5]

CCC(CC)[C@H](NC(C)=O)[C@@H]1[C@H](O)[C@@H](C(=O)O)C[C@@H]1N=C(N)N
inactive: Potency [8]
inconclusive: Potency [1] 0.0021 µM [rising, full curve] | Potency [2] 0.0017 µM [rising, full curve, poor fit] | Potency [3] 0.118 µM [cytotoxic, full curve, poor fit] | Potency [4] 0.0047 µM [rising, full curve, poor fit] | Potency [5] 0.0166 µM [rising, full curve, poor fit] | Potency [7] 33.2 µM [rising, single point]

CC(C)OC(=O)CCCC=CC[C@@H]1[C@H](C=C[C@@H](O)COc2cccc(C(F)(F)F)c2)[C@H](O)C[C@@H]1O
active: Potency [7] 26.4 µM
inactive: Potency [2]
inconclusive: Potency [1] 20.9 µM [cytotoxic, partial curve] | Potency [3] 20.9 µM [cytotoxic, partial curve, poor fit] | Potency [4] 11.8 µM [rising, full curve, poor fit] | Potency [5] 18.7 µM [cytotoxic, partial curve, poor fit] | Potency [6] 20.9 µM [cytotoxic, partial curve, poor fit] | Potency [8] 20.9 µM [cytotoxic, partial curve]

COc1ccc2cc([C@H](C)C(=O)O)ccc2c1
inactive: Potency [2] | Potency [7] | Potency [8]
inconclusive: Potency [1] 16.6 µM [cytotoxic, partial curve, poor fit] | Potency [3] 37.2 µM [cytotoxic, single point] | Potency [4] 18.7 µM [rising, partial curve] | Potency [6] 0.0019 µM [cytotoxic, full curve, poor fit]

Cc1cnc(Nc2ccc(OCCN3CCCC3)cc2)nc1Nc1cccc(S(=O)(=O)NC(C)(C)C)c1
inconclusive: Potency [1] 0.743 µM [cytotoxic, full curve, poor fit] | Potency [2] 0.332 µM [cytotoxic, full curve, poor fit] | Potency [3] 0.0166 µM [cytotoxic, full curve, poor fit] | Potency [7] 0.332 µM [cytotoxic, full curve, poor fit] | Potency [8] 23.5 µM [cytotoxic, single point]
inactive: Potency [10]

NC(=O)c1cccc2[nH]c(-c3ccc([C@H]4CCCN4)cc3F)nc12
inconclusive: Potency [1] 33.2 µM [cytotoxic, single point] | Potency [2] 29.6 µM [cytotoxic, single point] | Potency [3] 23.5 µM [cytotoxic, single point] | Potency [5] 23.5 µM [cytotoxic, single point] | Potency [9] 0.0132 µM [rising, full curve] | Potency [7] 37.2 µM [cytotoxic, single point] | Potency [10] 18.7 µM [cytotoxic, partial curve] | Potency [8] 37.2 µM [cytotoxic, single point]

COC(=O)C1=CO[C@@H](O)[C@@H]2C(CO)=CC[C@@H]12
active: Potency [7] 23.5 µM
inconclusive: Potency [1] 26.4 µM [cytotoxic, single point] | Potency [2] 20.9 µM [cytotoxic, partial curve] | viability (% of DMSO) [3] 72.6% [cytotoxic] | Potency [5] 18.7 µM [cytotoxic, partial curve] | Potency [9] 33.2 µM [cytotoxic, partial curve, poor fit] | Potency [10] 33.2 µM [cytotoxic, single point] | Potency [6] 20.9 µM [cytotoxic, single point] | Potency [8] 33.2 µM [cytotoxic, single point]

Cc1ccc(F)c(NC(=O)Nc2ccc(-c3cccc4[nH]nc(N)c34)cc2)c1
active: Potency [1] 26.4 µM | Potency [2] 8.33 µM | Potency [7] 26.4 µM
inconclusive: Potency [3] 16.6 µM [cytotoxic, partial curve, poor fit] | Potency [4] 4.18 µM [cytotoxic, full curve, poor fit] | Potency [9] 37.2 µM [cytotoxic, single point] | Potency [6] 33.2 µM [cytotoxic, single point] | Potency [8] 20.9 µM [cytotoxic, partial curve, poor fit]

C[N+](C)(C)CC(=O)O
inactive: Potency [2] | Potency [10] | Potency [8]
inconclusive: Potency [1] 0.148 µM [rising, full curve] | Potency [3] 0.0012 µM [rising, full curve, poor fit] | Potency [5] 14.8 µM [rising, partial curve, poor fit] | Potency [9] 0.0093 µM [rising, full curve, poor fit] | Potency [7] 1.05 µM [rising, partial curve, poor fit] | Potency [6] 0.0037 µM [rising, full curve, poor fit]
